The text below walks through data of publication PMC11344719 (Amino Acids, 2024).

Square brackets hold non-standard residues; d marks the D form. Phe(4-CH2NH2) = NCc1ccc(C[C@H](N)C(=O)O)cc1; hArg = N=C(N)NCCCC[C@H](N)C(=O)O; Cit = NC(=O)NCCC[C@H](N)C(=O)O; Agb = N=C(N)NCC[C@H](N)C(=O)O; Agp = N=C(N)NC[C@H](N)C(=O)O; Dab = NCC[C@H](N)C(=O)O; Dap = NC[C@H](N)C(=O)O

The nature of data set [1]: general procedure: Fmoc solid-phase peptide synthesis; Fmoc-Arg(Pbf)-Wang resin; DIC/Oxyma. The conditions noted are these: whole synthesis, 215 nm.
Data set [2] is described as follows: general procedure: Fmoc solid-phase peptide synthesis; 2-Chlorotrityl chloride resin; DIC/Oxyma. The conditions noted are these: whole synthesis, 215 nm.

As to H-K(hArg)[Dab]PR-OH, the “final HPLC purity” value in data set [1] was determined as 99.3%.

Turning to H-K(hArg)[Dab]P[Agb]-OH, the “final HPLC purity” value in data set [2] stood at 98.4%.

As for H-K(hArg)[Dab]P[Agp]-OH, the “final HPLC purity” value in data set [2] is 98.3%.

In the case of H-K(hArg)[Dab]P[Cit]-OH, the “final HPLC purity” value in data set [2] is reported as 98.8%.

“H-K(hArg)[Dab]P[Phe(4-CH2NH2)]-OH (SMILES N=C(N)NCCCC[C@H](N)C(=O)NCCCC[C@H](N)C(=O)N[C@@H](CCN)C(=O)N1CCC[C@H]1C(=O)N[C@@H](Cc1ccc(CN)cc1)C(=O)O)”: the “final HPLC purity” value in data set [2] was found to be 98.0%.

In the case of H-K(hArg)[Dab]P[hArg]-OH, the “final HPLC purity” value in data set [2] amounted to 99.0%.

Turning to H-K(hArg)[Dap]PR-OH, the “final HPLC purity” value in data set [1] turned out to be 99.4%.

As to H-K(hArg)[Dap]P[Agb]-OH, the “final HPLC purity” value in data set [2] is 99.1%.

In the case of H-K(hArg)[Dap]P[Agp]-OH, the “final HPLC purity” value in data set [2] is reported as 98.7%.

For H-K(hArg)[Dap]P[Cit]-OH, the “final HPLC purity” value in data set [2] was found to be 98.6%.

On to “H-K(hArg)[Dap]P[Phe(4-CH2NH2)]-OH (SMILES N=C(N)NCCCC[C@H](N)C(=O)NCCCC[C@H](N)C(=O)N[C@@H](CN)C(=O)N1CCC[C@H]1C(=O)N[C@@H](Cc1ccc(CN)cc1)C(=O)O)”, for which, in data set [2], the “final HPLC purity” value came to 98.4%.

Turning to H-K(hArg)[Dap]P[hArg]-OH, in data set [2], the “final HPLC purity” value was 98.7%.
